The whole screen tested about 410,000 compounds, of which about 18,000 (4.4%) were called active. The shares of active, inactive and inconclusive entries below differ from those in the screen. Rule as the data show it: active = activity change below about -60%; inconclusive = no clear call, values can overlap the other calls; inactive = above about -39%.
Experiment: qHTS Assay for inhibitors of the human cytomegalovirus (HCMV)
Details: HFF cells, HCMV-luciferase reporter, 72 h; at 57.5 µM; active compounds read low
Method in brief: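 Compounds were evaluated in HFFs infected with an HCMV luciferase reporter virus (MOI 1 PFU/cell). Luciferase in lysates collected 72 h post infection served as the replication measure.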
In the case of Cn1cc(CN2CCC(C(=O)Nc3ccc(Oc4ccccc4F)cc3)CC2)cn1, the activity change, negative = inhibition is reported as inconclusive: -46.5%. In the case of Cc1cccc(N(Cc2cc(=O)[nH]c3ccccc23)C(=O)C(C)C)c1, the activity change, negative = inhibition is reported as inactive: 8.26%. With O=C(COc1ncnc2ccc(Br)cc12)NC1CCCC1 the activity change, negative = inhibition was inactive: -0.371%. For COc1ccc(Br)cc1CNC(=O)CCSCc1ccc(C)cc1, the activity change, negative = inhibition was inconclusive: -42.3%. In the case of CC(C)(C)NC(=O)C(c1ccc(F)cc1)N(Cc1ccco1)C(=O)CCC(=O)Nc1nccs1 (stereo not drawn), the activity change, negative = inhibition is reported as inactive: -8.45%. With O=C(CSc1nnc(-c2c[nH]c3ccccc23)o1)N1c2ccccc2CCc2ccccc21 the activity change, negative = inhibition was active: -88.9%. In the case of CCC(C)c1ccc(NC(=S)NCc2ccccc2OC)cc1 (stereo not drawn), the activity change, negative = inhibition is reported as inconclusive: -54.7%. In the case of COc1ccc(NC(=O)CCc2ccccc2)cc1S(=O)(=O)N1CCCCC1, the activity change, negative = inhibition is reported as inconclusive: -45.5%. For CNC(=O)CC1C(=O)N(Cc2ccccc2)C(=S)N1NC(=O)c1cccc(F)c1 (stereo not drawn), the activity change, negative = inhibition was inconclusive: -49.7%. In the case of Cc1ccccc1NC(=O)CSc1nc(O)cc(=O)n1C, the activity change, negative = inhibition is reported as inconclusive: -41%. For CCOc1ccccc1CNC(=O)Cn1cc2c(n1)-c1c(oc(C(=O)N3CCCC3)c1C)CC2, the activity change, negative = inhibition was inconclusive: -58.9%. In the case of CC1(C)C2([N+](=O)[O-])CN3CC1([N+](=O)[O-])CN(C2)C3c1cccnc1 (stereo not drawn), the activity change, negative = inhibition is reported as inconclusive: -49.9%. For COc1ccc(C(CNC(=O)COc2ccc(-c3ccccc3)cc2)N2CCOCC2)cc1 (stereo not drawn), the activity change, negative = inhibition was inconclusive: -41.6%. In the case of COc1ccc(Cl)cc1/C=C/c1ccc2cccc(O)c2n1, the activity change, negative = inhibition is reported as inconclusive: -47.2%. With Cc1nc(NC(=O)/C=C/c2ccc(Cl)cc2Cl)sc1C(=O)N(C)C the activity change, negative = inhibition was active: -61.1%. With CC1CCN(c2cc(N3CCN(C(=O)c4ccc(F)c(F)c4)CC3)c([N+](=O)[O-])cc2F)CC1 the activity change, negative = inhibition was inconclusive: -51.4%. For Cc1nc(SC(C)C(=O)Nc2ccccc2Cl)cc(-c2ccccc2)n1 (stereo not drawn), the activity change, negative = inhibition was active: -70.2%. For c1ccc(-c2ccc(-c3n(-c4ccccn4)c4ccccc4[n+]3-c3ccccn3)cc2)cc1, the activity change, negative = inhibition was inactive: -1.87%. For CCCc1c(-c2ccc(Cl)cc2)ncn1Cc1cccc(-c2ccccc2)c1, the activity change, negative = inhibition was inconclusive: -51.7%. For Cn1c(SCCOc2ccccc2F)nc2ccccc2c1=O, the activity change, negative = inhibition was inconclusive: -41.4%. For CCc1ccc(C(=O)COC(=O)c2n[nH]c3ccccc23)cc1, the activity change, negative = inhibition was active: -65.2%. For CCOC(=O)c1c(-c2ccc(OC)cc2)csc1/N=C/N(C)C, the activity change, negative = inhibition was inconclusive: -51.3%. For CCOC(=O)N/N=C/c1c(F)c(F)c(F)c(F)c1F, the activity change, negative = inhibition was inconclusive: -44.9%. For Cc1ccc(Cl)cc1NC(=O)N1CCC(CN2CCCCCC2)CC1, the activity change, negative = inhibition was inactive: -19.6%. For O=C(Nc1nnc(C2=COCCO2)o1)c1ccc(S(=O)(=O)N2CCOCC2)cc1, the activity change, negative = inhibition was inactive: 57.9%. For O=C(CCNC(=O)c1ccc(Cl)cc1)NC1CCCc2ccccc21 (stereo not drawn), the activity change, negative = inhibition was active: -82%. For CCNC(=O)COc1ccc(CC)cc1, the activity change, negative = inhibition was inconclusive: -54.6%. With Cc1ccc(C(=O)Nc2nc3n(n2)C(c2ccc(F)cc2)C=C(c2ccccc2)N3)cc1 (stereo not drawn) the activity change, negative = inhibition was inactive: -30.7%. In the case of O=C(Nc1ccccc1F)Nc1cc(Cl)ccc1-n1cncn1, the activity change, negative = inhibition is reported as inconclusive: -50.4%. With COC(=O)c1cc(NC(=O)CN(C)Cc2ccccc2)cc(C(=O)OC)c1 the activity change, negative = inhibition was inconclusive: -53.9%. For CCOC(=O)c1cc2c(=O)n3cccc(C)c3nc2n(Cc2ccco2)c1=NC(=O)c1cccnc1, the activity change, negative = inhibition was inactive: -9.45%. With C=CCNC(=O)c1ccc(-c2ccc([N+](=O)[O-])cc2)o1 the activity change, negative = inhibition was inconclusive: -57%. With O=C1/C(=C/c2ccc(O)cc2)SC(=S)N1CC1CCCO1 (stereo not drawn) the activity change, negative = inhibition was inconclusive: -49.1%. With CC(C)(C)c1ccc(NC(=O)c2cc(C3CCCN(C(=O)CCc4ccccc4)C3)on2)cc1 (stereo not drawn) the activity change, negative = inhibition was inconclusive: -42.8%. With O=C(COC(=O)/C=C/c1ccccc1)NC1CC1 the activity change, negative = inhibition was inconclusive: -50.3%. With C[C@@H]1NC(=O)[C@H](CCCN=C(N)N)NC(=O)c2cc([N+](=O)[O-])cc(I)c2NCCC[C@@H](C(N)=O)NC1=O the activity change, negative = inhibition was inactive: -4.75%. In the case of CCCSc1ncc(Cl)c(C(=O)NCc2ccc(OC)cc2)n1, the activity change, negative = inhibition is reported as inconclusive: -49.9%. For COc1cccc(-c2nc(CS(=O)(=O)CC(=O)NC3CCCCCC3)c(C)o2)c1, the activity change, negative = inhibition was inactive: -13.5%. In the case of CC(C)(C)[C@H]1C=C(C(=O)Nc2ccccc2)O[C@@H](OCCCCO)C1, the activity change, negative = inhibition is reported as inconclusive: -52.5%. For COc1ccccc1CC(=O)Nc1ccc([N+](=O)[O-])cc1O, the activity change, negative = inhibition was inconclusive: -44.3%. In the case of O=C(c1ccc2oc(CCc3ccccc3)nc2c1)N1CCC(O)CC1, the activity change, negative = inhibition is reported as inactive: 56.2%. For CCOC(=O)c1nnn(-c2nonc2N)c1CN1CCCC1, the activity change, negative = inhibition was inactive: 6.75%. With CN(C(=O)COC(=O)c1c2c(nc3ccccc13)/C(=C/c1cccc([N+](=O)[O-])c1)CCC2)C1CCS(=O)(=O)C1 (stereo not drawn) the activity change, negative = inhibition was inconclusive: -45.7%.
% is scaled to controls: 0 for no effect and ±100 for the full control effect.
